We go through two compounds from publication PMC10809502, “Application of a new MDCKII-MDR1 cell model to measure the extent of drug distribution in vitro at equilibrium for prediction of in vivo unbound brain-to-plasma drug distribution” (Fluids and Barriers of the CNS, 2024).

Amino acid sequences for entries named in this document (tags omitted). Residues count along the entry.
UniProt P02769, 25-607: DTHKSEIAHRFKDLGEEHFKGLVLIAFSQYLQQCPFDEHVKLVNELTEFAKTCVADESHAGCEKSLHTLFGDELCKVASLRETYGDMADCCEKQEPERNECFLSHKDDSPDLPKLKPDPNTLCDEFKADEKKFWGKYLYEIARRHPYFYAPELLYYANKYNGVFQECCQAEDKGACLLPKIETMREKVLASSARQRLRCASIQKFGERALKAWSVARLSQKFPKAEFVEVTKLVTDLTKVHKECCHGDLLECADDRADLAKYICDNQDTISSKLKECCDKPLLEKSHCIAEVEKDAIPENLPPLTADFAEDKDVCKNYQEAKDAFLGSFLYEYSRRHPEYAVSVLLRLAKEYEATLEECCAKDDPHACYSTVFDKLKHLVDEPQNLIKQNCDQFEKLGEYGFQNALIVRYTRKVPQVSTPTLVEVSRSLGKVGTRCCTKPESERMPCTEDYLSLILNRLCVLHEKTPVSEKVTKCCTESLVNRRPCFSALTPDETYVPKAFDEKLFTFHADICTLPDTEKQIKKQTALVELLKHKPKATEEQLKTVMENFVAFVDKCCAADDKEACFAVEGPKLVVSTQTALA

For data set [1] the following is noted: Göttingen minipig; cited from earlier work.
Data set [2] can be described thus: Fraction unbound in 20-fold diluted brain homogenate, equilibrium dialysis. The settings on record: Göttingen, minipig, pH 7.4.
Another data set concerns P-gp (human MDR1). In words: Equilibrium distribution study (in vitro Kp,brain / Kp,uu,brain) across MDCKII-MDR1 cells, BSA apical, brain homogenate basolateral, Uni-L and Bi-L. The settings on record: dog, % printed.
Data set [3] addresses Bovine Serum Albumin (BSA) (Bos taurus, UniProt P02769). In words: Fraction unbound in 35 μM BSA, equilibrium dialysis. Particulars: for fraction unbound at 5 h, 1 μM: bovine, 35 μM BSA. Background: In equilibrium dialysis only unbound substance equilibrates across the membrane.

With `CC(C)NCC(O)COc1ccc(CC(N)=O)cc1` (stereo not shown) [Atenolol, atenolol], the “Kp,uu,brain in vivo” value in data set [1] is 0.10. The free fraction (fraction unbound) (usually free concentration divided by total concentration) at 5 h, 1 μM in data set [2] is 0.952 ± 0.021; in data set [3], above 1. The recovery at 29 h, 1 μM with P-gp (human MDR1) (pH 7.5, Recovery Bi-L, mass balance Eq. 7, Bi-L) worked out at 77%; in the data set with P-gp (human MDR1) (pH 7.5, Recovery Uni-L, mass balance Eq. 6, Uni-L), 75%.
`CN(C)CCOC(c1ccccc1)c1ccccc1` [Diphenhydramine, diphenhydramine] yielded a free fraction (fraction unbound) at 5 h, 1 μM in data set [3] above 1. Further, the “Predicted fu (%) BSA 35 μM (D = 20)” value in data set [3] (calculated with Eq. 2 from fu measured in 100% matrices (ref 20), dilution factor 20) was 94.7%.
